In publication PMC4848466, “Insights into the activation mechanism of class I HDAC complexes by inositol phosphates” (Nature Communications, 2016):
These are yes or no findings as the source states them, for the method shown. Some entries that bind do so weakly or less than the wild type.

Amino acid sequences for entries named in this document (tags omitted). Residues count along the entry.
UniProt Q9Y618, residues 350-480: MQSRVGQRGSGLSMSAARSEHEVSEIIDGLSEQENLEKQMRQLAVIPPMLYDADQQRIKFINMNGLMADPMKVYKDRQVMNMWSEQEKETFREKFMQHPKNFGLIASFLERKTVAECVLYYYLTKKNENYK
UniProt O15379: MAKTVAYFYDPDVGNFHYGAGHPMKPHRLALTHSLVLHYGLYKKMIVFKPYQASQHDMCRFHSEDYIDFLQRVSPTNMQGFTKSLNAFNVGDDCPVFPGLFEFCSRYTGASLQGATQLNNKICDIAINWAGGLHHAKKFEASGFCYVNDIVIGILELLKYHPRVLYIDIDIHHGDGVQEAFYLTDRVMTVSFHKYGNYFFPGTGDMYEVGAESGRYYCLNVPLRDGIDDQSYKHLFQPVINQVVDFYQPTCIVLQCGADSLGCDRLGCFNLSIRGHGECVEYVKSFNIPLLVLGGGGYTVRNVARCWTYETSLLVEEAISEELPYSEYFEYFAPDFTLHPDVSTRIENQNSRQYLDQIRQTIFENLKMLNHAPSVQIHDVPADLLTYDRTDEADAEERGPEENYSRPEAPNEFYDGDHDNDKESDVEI

Target: SMRT residues 350-480 (UniProt Q9Y618)
Experiment: co-purification (FLAG affinity resin, then gel filtration); HDAC3 and FLAG-SMRT 350-480 co-transfected in HEK293F; cleared lysate on FLAG resin 1 h at 4 °C, washes up to 300 mM potassium acetate, TEV elution, Superdex S200 in 50 mM potassium acetate, 25 mM Tris pH 7.5, 0.5 mM TCEP; afterwards 1 M NaCl treatment to remove Ins(1,4,5,6)P4

“HDAC3 (from UniProt O15379 1-428) (enzyme)” was tested. Which binding did it give?
The binding was “binds”.
